Patent publication US20150010932A1 (SALK INSTITUTE FOR BIOLOGICAL STUDIES, published 2015)

Target: T1, cLuc-Linker1-Flag-Mdm2
T1 construct: also called cLuc-Mdm2; Mdm2 E3 ligase
Assay: BiLC in living U2OS cells

binding result: no binding
B1: nLuc-Linker1-HA-Ube2d3 (other)
chain: MEDAKNIKKGPAPFYPLEDGTAGEQLHKAMKRYALVPGTIAFTDAHIEVDITYAEYFEMSVRLAEAMKRYGLNTNHRIVVCSENSLQFFMPVLGALFIGVAVAPANDIYNERELLNSMGISQPTVVFVSKKGLQKILNVQKKLPIIQKIIIMDSKTDYQGFQSMYTFVTSHLPPGFNEYDFVPESFDRDKTIALIMNSSGSTGLPKGVALPHRTACVRFSHARDPIFGNQIIPDTAILSVVPFHHGFGMFTTLGYLICGFRVVLMYRFEEELFLRSLQDYKIQSALLVPTLFSFFAKSTLIDKYDLSNLHEIASGGAPLSKEVGEAVAKRFHLPGIRQGYGLTETTSAILITPEGDDKPGAVGKVVPFFEAKVVDLDTGKTLGVNQRGELCVRGPMIMSGYVNNPEATNALIDKDGGGGSGGGQISYASRGYPYDVPDYAGSSGALKRINKELSDLARDPPAQCSAGPVGDDMFHWQATIMGPNDSPYQGGVFFLTIHFPTDYPFKPPKVAFTTRIYHPNINSNGSICLDILRSQWSPALTISKVLLSICSLLCDPNPDDPLVPEIARIYKTDRDKYNRISREWTQKYAM
notes: also called nLuc-Ube2d3; UbcH5c
